# Some entries share one result that the patent states for a list of compounds. At least one structure is not confirmed: it was looked up by name or label, or the drawing left a doubt.
# Columns and labels:
# [1] = system: Aphis gossipii Glover (cotton aphid, melon aphid); experiment: Insecticidal action test for Aphis gossipii Glover (seedling immersion); type: in vivo; conditions: 500 ppm active ingredient; cucumber seedlings with hatchlings immersed; 25° C.; after 3 days
# Protocol: A wettable powder prepared based on Formulation Example 2 was diluted with water so that the concentration of active ingredient became 500 ppm. In the resulting liquid were immersed cucumber seedlings on which the hatchlings of Aphis gossipii Glover were parasitic, after which the cucumber seedlings were dried in the air. The resulting cucumber seedlings were placed in a thermostat of 25° C. After 3 days, the number of living insects was calculated and the mortality of insect was calculated using the calculation formula of the following Mathematical Expression 1. Insect mortality (%)=[1−(number of living insects)/(number of tested insects)]×100 [Mathematical Expression 1]
# [2] = system: Nilaparvata lugens Stál (brown rice planthopper); experiment: Insecticidal action test for Nilaparvata lugens Stál (immersed sprouting rice); type: in vivo; conditions: 500 ppm active ingredient; sprouting unhulled rice immersed; 3-age larvae; 25° C.; after 6 days
# Protocol: A wettable powder prepared based on Formulation Example 2 was diluted with water so that the concentration of active ingredient became 500 ppm. In the diluted formulation were immersed sprouting unhulled rice. The immersed rice was placed in a plastic cup of 60 ml. Into the plastic cup were released 10 3-age larvae of Nilaparvata lugens Stál (brown rice planthopper). The cup was covered with a cap and placed in a thermostat of 25° C. After 6 days, the number of living insects was counted and the mortality of insect was calculated using the calculation formula of Mathematical Expression 1.
SMILES,insect mortality [1],insect mortality [2]
CC(C)ON=C(C(Cl)=NOCCC(C)(C)C)n1cncn1 [I-15],≥ 90%,≥ 90%
CC(C)CON=CC(=NOC(C)C)n1cncn1 [I-29],≥ 90%,≥ 90%
CCCON=C(C#N)C(=NOC(C)C)n1cncn1 [I-49],≥ 90%,≥ 90%
CC(C)ON=C(C(C#N)=NOC(C)(C)C)n1cncn1 [I-54],≥ 90%,≥ 90%
CC(C)ON=C(C(C#N)=NOCC(C)(C)C)n1cncn1 [I-57],≥ 90%,≥ 90%
CCCC(C)ON=C(C#N)C(=NOC(C)C)n1cncn1 (stereo not shown) [I-58],≥ 90%,≥ 90%
CCC(CC)ON=C(C#N)C(=NOC(C)C)n1cncn1 [I-59],≥ 90%,≥ 90%
CCCCCCON=C(C#N)C(=NOC(C)C)n1cncn1 [I-60],≥ 90%,≥ 90%
CC(C)ON=C(C(C#N)=NOCCC(C)(C)C)n1cncn1 [I-61],≥ 90%,≥ 90%
CC(C)ON=C(C(C#N)=NOC1CCCC1)n1cncn1 [I-62],≥ 90%,≥ 90%
C=CCON=C(C#N)C(=NOC(C)C)n1cncn1 [I-67],≥ 90%,≥ 90%
C#CCON=C(C#N)C(=NOC(C)C)n1cncn1 [I-68],≥ 90%,≥ 90%
CC#CCON=C(C#N)C(=NOC(C)C)n1cncn1 [I-69],≥ 90%,≥ 90%
CCCCCON=C(C(N)=O)C(=NOC(C)C)n1cncn1 [I-78],≥ 90%,≥ 90%
CC(C)ON=C(C(=NOCC(C)(C)C)C(N)=O)n1cncn1 [I-80],≥ 90%,≥ 90%
CCCC(C)ON=C(C(N)=O)C(=NOC(C)C)n1cncn1 (stereo not shown) [I-81],≥ 90%,≥ 90%
CCCCCON=C(N)C(=NOCCCCC)n1cncn1 [I-124],≥ 90%,≥ 90%
CCC(CC)ON=C(N)C(=NOC(CC)CC)n1cncn1 [I-128],≥ 90%,≥ 90%
CCCCCCON=C(N)C(=NOCCCCCC)n1cncn1 [I-129],≥ 90%,≥ 90%
CC(C)(C)CCON=C(N)C(=NOCCC(C)(C)C)n1cncn1 [I-130],≥ 90%,≥ 90%
NC(=NOC1CCCC1)C(=NOC1CCCC1)n1cncn1 [I-131],≥ 90%,≥ 90%
NC(=NOCC1CCC1)C(=NOCC1CCC1)n1cncn1 [I-134],≥ 90%,≥ 90%
C=CCON=C(N)C(=NOCC=C)n1cncn1 [I-136],≥ 90%,≥ 90%
"CC(=O)NC(=NOCC(C)C)C(=NOC(C)C)n1cncn1 [I-217, 1-[2-N-acetylamino-2-isobutyloxyimino-1-isopropoxyiminoethyl]-1H-1,2,4-triazole]",≥ 90%,≥ 90%

SMILES,insect mortality [1],insect mortality [2]
CC(C)ON=C(C(N)=S)C(=NOC(C)C)n1cncn1 [I-224],≥ 90%,≥ 90%
CCCCCCCCCCON=C(Cl)C(=NOCCCCCCCCCC)n1cncn1 [I-235],≥ 90%,≥ 90%
CC(C)ON=C(N)C(=NOC(C)C)n1ccnc1 [I-269],≥ 90%,≥ 90%
CC(C)ON=C(Cl)C(=NOC(C)C)n1ccnc1 [I-270],≥ 90%,≥ 90%
CC(C)ON=C(C#N)C(=NOC(C)C)n1ccnc1 [I-271],≥ 90%,≥ 90%
CC(C)ON=C(C(=NOC(C)C)n1cncn1)C1CC1 [I-309],≥ 90%,≥ 90%
CC(C)ON=C(C(=NOC(C)C)n1cncn1)c1ccccc1 [I-311],≥ 90%,≥ 90%
COc1ccc(CON=C(C#N)C(=NOC(C)C)n2cncn2)cc1 [I-333],≥ 90%,≥ 90%
CC(C)ON=C(C(C#N)=NOCc1ccc(Cl)cc1)n1cncn1 [I-335],≥ 90%,≥ 90%
CC(C)ON=C(C(C#N)=NOCCc1ccccc1)n1cncn1 [I-339],≥ 90%,≥ 90%
CC(C)ON=C(C(C#N)=NOC(C)c1ccccc1)n1cncn1 (stereo not shown) [I-343],≥ 90%,≥ 90%
CC(C)ON=C(C(C#N)=NOCc1cccc(C#N)c1)n1cncn1 [I-347],≥ 90%,≥ 90%
COc1cccc(CON=C(C#N)C(=NOC(C)C)n2cncn2)c1 [I-348],≥ 90%,≥ 90%
CCCCCCCCON=C(C#N)C(=NOC(C)C)n1cncn1 [I-351],≥ 90%,≥ 90%
CC(C)ON=C(C(=NOC(C)C)n1cncn1)c1ccccc1Cl [I-371],≥ 90%,≥ 90%
CC(C)ON=C(C(=NOC(C)C)n1cncn1)c1cccc(Cl)c1 [I-372],≥ 90%,≥ 90%
NC(=O)C(=NOCC(F)(F)C(F)(F)F)C(=NOCC(F)(F)C(F)(F)F)n1cncn1 [I-375],≥ 90%,≥ 90%
CCOCCON=C(C#N)C(=NOCCOCC)n1cncn1 [I-376],≥ 90%,≥ 90%
CC(ON=C(C#N)C(=NOC(C)C(F)(F)F)n1cncn1)C(F)(F)F (stereo not shown) [I-379],≥ 90%,≥ 90%
CC(C)OCCON=C(C#N)C(=NOCCOC(C)C)n1cncn1 [I-381],≥ 90%,≥ 90%
Cc1ccccc1CON=C(C#N)C(=NOCc1ccccc1C)n1cncn1 [I-383],≥ 90%,≥ 90%
Cc1cccc(CON=C(C#N)C(=NOCc2cccc(C)c2)n2cncn2)c1 [I-385],≥ 90%,≥ 90%
CC(C)ON=C(CC#N)C(=NOC(C)C)n1cncn1 [I-393],≥ 90%,≥ 90%
CC(C)ON=C(C(=NOC(C)C)S(C)(=O)=O)n1cncn1 [I-395],≥ 90%,≥ 90%

SMILES,insect mortality [1],insect mortality [2]
CC(C)ON=C(C(=NOC(C)C)[S+](C)[O-])n1cncn1 (stereo not shown) [I-396],≥ 90%,≥ 90%
CC(C)ON=C(I)C(=NOC(C)C)n1cncn1 [I-397],≥ 90%,≥ 90%
CON=C(C(Cl)=NOCCC(C)C)n1cncn1 [II-10],≥ 90%,≥ 90%
CON=C(C(Cl)=NOCCC(C)(C)C)n1cncn1 [II-15],≥ 90%,≥ 90%
CCON=C(C#N)C(=NOC)n1cncn1 [II-48],≥ 90%,≥ 90%
CCCON=C(C#N)C(=NOC)n1cncn1 [II-49],≥ 90%,≥ 90%
CCCCON=C(C#N)C(=NOC)n1cncn1 [II-51],≥ 90%,≥ 90%
CCC(C)ON=C(C#N)C(=NOC)n1cncn1 (stereo not shown) [II-53],≥ 90%,≥ 90%
CON=C(C(C#N)=NOC(C)(C)C)n1cncn1 [II-54],≥ 90%,≥ 90%
CCCCCON=C(C#N)C(=NOC)n1cncn1 [II-55],≥ 90%,≥ 90%
CCCC(C)ON=C(C#N)C(=NOC)n1cncn1 (stereo not shown) [II-58],≥ 90%,≥ 90%
CCC(CC)ON=C(C#N)C(=NOC)n1cncn1 [II-59],≥ 90%,≥ 90%
CCCCCCON=C(C#N)C(=NOC)n1cncn1 [II-60],≥ 90%,≥ 90%
CON=C(C(C#N)=NOC1CCCC1)n1cncn1 [II-62],≥ 90%,≥ 90%
CON=C(C(C#N)=NOCC1CCC1)n1cncn1 [II-65],≥ 90%,≥ 90%
CON=C(C(C#N)=NOCC1CCCC1)n1cncn1 [II-66],≥ 90%,≥ 90%
C=CCON=C(C#N)C(=NOC)n1cncn1 [II-67],≥ 90%,≥ 90%
C#CCON=C(C#N)C(=NOC)n1cncn1 [II-68],≥ 90%,≥ 90%
CCON=C(C(N)=O)C(=NOC)n1cncn1 [II-71],≥ 90%,≥ 90%
CCCON=C(C(N)=O)C(=NOC)n1cncn1 [II-72],≥ 90%,≥ 90%
CON=C(C(=NOC(C)C)C(N)=O)n1cncn1 [II-73],≥ 90%,≥ 90%
CCC(C)ON=C(C(N)=O)C(=NOC)n1cncn1 (stereo not shown) [II-76],≥ 90%,≥ 90%
CON=C(C(=NOC(C)(C)C)C(N)=O)n1cncn1 [II-77],≥ 90%,≥ 90%
